From PubChem BioAssay AID493014 (National Center for Advancing Translational Sciences (NCATS), 2011)
About 170 (0.05%) of roughly 340,000 compounds were called active. Inconclusive means that the source gave no clear call. Such entries were picked first, then a sample of the others. Calls follow the shape of the dose curve; as a rule, active = well fitted inhibition curve with a large enough effect in the signal ratio, with a control signal flat (not every such curve was filed as active); inconclusive = small, poorly fitted or top-dose-only effect, or effect the other way, or a change in a side signal; inactive = flat fitted curve, though single readings scatter; the % refers to the signal ratio. A potency beside an inconclusive call is a rough fit, not a confirmed value.

assay: qHTS Assay to Find Inhibitors of Chronic Active B-Cell Receptor Signaling; conditions: ABC-DLBCL IkBa-CBG/CBR reporter, luminescence ratio (green luciferase fused to IkBa over red control in TMD8 lymphoma cells), 4 h; activity change, negative = inhibition: at 46.1 µM (top of the series);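 as to activity change, negative = inhibition: plate controls were basal doxycycline-induced cells for no effect and cells given 10 µM MG132 for full effect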
How it was run: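 Concentration-response series (up to 46 uM) were applied to TMD8 dual-reporter cells for 4 h at 37C with doxycycline. Green/red ratio, after filter-overlap correction, defined %Activity; red signal alone was normalised to basal cells and zero luminescence.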
Potency is read from the fitted curve at half-maximal effect.

Compound | Potency | activity change, negative = inhibition
O=C(C(=O)N1CCN(c2ccccc2F)CC1)c1c[nH]c2ccccc12 | inconclusive: 12.6 µM [falling, partial curve] | 
C[C@H](CO)N1C[C@H](C)[C@@H](CN(C)S(C)(=O)=O)Oc2ccc(NC(=O)c3ccncc3)cc2C1=O |  | inactive: 0.354%
Clc1ccc(Cn2ncc3c(NCc4ccco4)ncnc32)c(Cl)c1 | inconclusive: 29.1 µM [falling, single point] | 
Fc1cccc(CN2CCN(c3nc4nonc4nc3NC3CC3)CC2)c1 |  | inactive: 5.48%
COc1cccc(CN(C)C(=O)CSCC(=O)Nc2cccc(C)c2)c1OC |  | inconclusive: -3.21%
Cc1cc(NC(=O)COC(=O)[C@H](Cc2c[nH]c3ccccc23)NC(=O)c2ccc(F)cc2)no1 |  | inactive: 4.18%
CN(CC(=O)Nc1ccc(Cl)cc1)C(=O)CNC(=O)Cc1cccc2ccccc12 |  | inconclusive: 1.73%
O=C(NC(=S)Nc1ccc(Oc2ccccc2)cc1)c1ccc(Cl)cc1 |  | inconclusive: 1.45%
COc1cc(-c2cc(-c3ccccc3)nc(SCC(=O)O)c2C#N)cc(OC)c1OC |  | inconclusive: -3.39%
O=C(NCC(c1ccco1)N1CCc2ccccc2C1)c1cccc(Br)c1 (stereo unspecified) |  | inactive: 11.1%
COC(=O)c1cccc(NC(=O)CN2CCc3ccccc3C2)c1 | inconclusive: 17.8 µM [falling, single point] | 
CCOCc1nnc(NC(=O)c2ccc(OC)cc2)s1 |  | inactive: 16.1%
Cc1ccccc1C(=O)Nc1ccc(O)cc1C(=O)O | inconclusive: 35.5 µM [rising, single point] | 
COc1cccc(/C=N/Nc2ncccc2[N+](=O)[O-])c1OC | inconclusive: 22.4 µM [falling, single point] | 
Cc1cccc(/C(N)=N/OC(=O)c2ccc(Cl)cc2Cl)c1 |  | inconclusive: 9.85%
Cc1nc2c(c(=O)c3ccccc3n2C)c(=O)n1C1CCCCCC1 |  | inconclusive: -0.15%
COc1cccc(NC(=O)Nc2ccccc2C(N)=O)c1 | inconclusive: 11.2 µM [falling, partial curve] | 
Cc1ccc2c(c1)CCCN2C(=O)c1ccc2c(c1)OCO2 |  | inconclusive: 4.33%
O=C(CNc1ccc2ccccc2c1)N/N=C/c1ccncc1 |  | inconclusive: -13.9%
Cc1nc(-c2cccc(NC(=O)c3ccc(-n4cccn4)cc3)c2)cs1 | inconclusive: 23.1 µM [falling, single point] | 
COc1cc(CNCCc2ccc(S(N)(=O)=O)cc2)ccc1OCc1ccc(Cl)cc1 |  | inactive: 4.16%
Cc1c(Cl)cccc1NC(=S)N1CCCN(Cc2ccc(F)cc2)C1 |  | inconclusive: 11.9%
CCn1c(=O)cc(SCC(=O)NCc2ccco2)c2ccccc21 |  | inconclusive: -10%
O=C(Cc1ccc(Cl)cc1)SCc1ccccc1 |  | inconclusive: 11.5%
Cc1ccc(S(=O)(=O)N/N=C\c2ccccc2OCc2ccccc2)cc1 |  | inactive: -1.01%
Nc1[nH]ncc1-c1ccc(Cl)cc1 | inconclusive: 14.1 µM [falling, partial curve, poor fit] | 

An excerpt from above in order of molecular weight, rising:
Compound | Potency | activity change, negative = inhibition
Nc1[nH]ncc1-c1ccc(Cl)cc1 | inconclusive: 14.1 µM [falling, partial curve, poor fit] | 
Cc1ccccc1C(=O)Nc1ccc(O)cc1C(=O)O | inconclusive: 35.5 µM [rising, single point] | 
O=C(Cc1ccc(Cl)cc1)SCc1ccccc1 |  | inconclusive: 11.5%
COc1cccc(NC(=O)Nc2ccccc2C(N)=O)c1 | inconclusive: 11.2 µM [falling, partial curve] | 
COc1cccc(/C=N/Nc2ncccc2[N+](=O)[O-])c1OC | inconclusive: 22.4 µM [falling, single point] | 
Cc1cccc(/C(N)=N/OC(=O)c2ccc(Cl)cc2Cl)c1 |  | inconclusive: 9.85%
COC(=O)c1cccc(NC(=O)CN2CCc3ccccc3C2)c1 | inconclusive: 17.8 µM [falling, single point] | 
Cc1nc2c(c(=O)c3ccccc3n2C)c(=O)n1C1CCCCCC1 |  | inconclusive: -0.15%
CCn1c(=O)cc(SCC(=O)NCc2ccco2)c2ccccc21 |  | inconclusive: -10%
O=C(C(=O)N1CCN(c2ccccc2F)CC1)c1c[nH]c2ccccc12 | inconclusive: 12.6 µM [falling, partial curve] | 
Cc1nc(-c2cccc(NC(=O)c3ccc(-n4cccn4)cc3)c2)cs1 | inconclusive: 23.1 µM [falling, single point] | 
O=C(NC(=S)Nc1ccc(Oc2ccccc2)cc1)c1ccc(Cl)cc1 |  | inconclusive: 1.45%
O=C(NCC(c1ccco1)N1CCc2ccccc2C1)c1cccc(Br)c1 (stereo unspecified) |  | inactive: 11.1%
Cc1cc(NC(=O)COC(=O)[C@H](Cc2c[nH]c3ccccc23)NC(=O)c2ccc(F)cc2)no1 |  | inactive: 4.18%
C[C@H](CO)N1C[C@H](C)[C@@H](CN(C)S(C)(=O)=O)Oc2ccc(NC(=O)c3ccncc3)cc2C1=O |  | inactive: 0.354%

Next part:

Compound | Potency | activity change, negative = inhibition
OCCN(Cc1ccccc1)Cc1ccc(Cl)cc1Cl |  | inconclusive: -0.0572%
O=c1[nH]c2ccccc2nc1-c1ccc(Cl)cc1 |  | inconclusive: 17.8%
O=C1SC(c2ccccc2)=C/C1=C\N1CCCCC1 | inconclusive: 35.5 µM [falling, single point] | 
c1csc(-c2nc3ccccn3c2NC2CCCCC2)c1 |  | inconclusive: -14.3%
O=Cc1ccc(OCc2ccc3ccccc3c2)cc1 | inconclusive: 4.47 µM [falling, full curve] | 
N#CCSc1ncccc1-c1nc2ccccc2[nH]1 | inconclusive: 20.6 µM [falling, single point] | 
CCCCCCCC/C=C\CCCCCCCC(=O)NCCO |  | inactive: 3.29%
CC(=O)NC(Cc1cccc(F)c1)C(=O)NC1CCN(C(=O)Nc2ccccc2)CC1 (stereo unspecified) |  | inactive: 6.78%
O=c1c2ccccc2ncn1-c1ccc([N+](=O)[O-])cc1[N+](=O)[O-] | inconclusive: 35.5 µM [falling, single point] | 
Cc1csc(SCC(=O)NC23CC4CC(CC(C4)C2)C3)n1 |  | inconclusive: -9.17%
Cc1ccc(N2C(=O)[C@@H]3[C@H](C2=O)[C@H]2C=CC=NN2[C@@H]3C(=O)Nc2ccccc2)cc1 |  | inconclusive: -29.3%
C#CCOCCOCCOCCNc1nc(N2CCN(C(=O)CCCCCCCCCCNC(=O)[C@H](CO)n3cc(CCCSC)nn3)CC2)nc(N2CCN(C(=O)CCCCCCCCCCNC(=O)[C@@H]([C@H](C)O)n3cc(C)nn3)CC2)n1 |  | inconclusive: -10.2%
O=C(O)CCc1nn2c3ccccc3n(CCN3CCCCC3)c2nc1=O |  | inactive: 12.6%
CCC(CC)C(=O)Nc1ccc(-c2cn3cccnc3n2)cc1 |  | inactive: 10.8%
CCCOc1ccc(C(=O)CCN2CCN(C(=O)OCC)CC2)cc1 | inconclusive: 35.5 µM [rising, single point] | 
CNc1nnc(-c2ccc(N(C)C)cc2)s1 | inconclusive: 25.9 µM [falling, partial curve] | 
O=C(O)CC(C(=O)O)N1C(=O)/C(=C/C=C/c2ccco2)SC1=S (stereo unspecified) |  | inactive: -0.805%
Cc1cc(C)c(C)c(C(=O)C2OC(=O)C(C)(C)C(=O)C2(C)C)c1C (stereo unspecified) |  | inconclusive: 8.07%
COc1ccc(-c2c(C#Cc3ccsc3)c3cc(-c4ccc5[nH]ccc5c4)ccc3n2C)cc1 |  | inconclusive: 1.84%
CCN(CC)Cc1oc(-c2ccccc2)cc1C(=O)O | inconclusive: 7.94 µM [rising, partial curve] | 
Cc1ccc(S(=O)(=O)Oc2ccc(/C=N/NC(=O)c3nn(C)cc3Cl)cc2)cc1 | inconclusive: 2.59 µM [falling, partial curve] | 
COc1cc(NC(=S)NCC2CCCO2)c(OC)cc1Cl (stereo unspecified) |  | inactive: 0.419%
CCOC(=O)c1cc(-c2ccccc2)n(CCC(=O)NC2CCCCC2)c1C |  | inconclusive: 7.49%
O=C(Cn1c(=O)n2ncnc2c2c3c(sc21)CCCC3)c1ccccc1 |  | inconclusive: 19.5%
Cc1cc(SCC(=O)N2CCN(C(=O)c3ccco3)CC2)c(C)cc1Br | inconclusive: 29.1 µM [falling, single point] | 
